Measured values: PMC5485956
These are yes or no findings as the source states them, for the method shown. In cells and extracts the contact can be indirect. Some results given as binding are weak or reduced against the parent protein; the word gives no strength.

By UniProt entry, the sequences of proteins in these tests, tags left out.
UniProt P63092: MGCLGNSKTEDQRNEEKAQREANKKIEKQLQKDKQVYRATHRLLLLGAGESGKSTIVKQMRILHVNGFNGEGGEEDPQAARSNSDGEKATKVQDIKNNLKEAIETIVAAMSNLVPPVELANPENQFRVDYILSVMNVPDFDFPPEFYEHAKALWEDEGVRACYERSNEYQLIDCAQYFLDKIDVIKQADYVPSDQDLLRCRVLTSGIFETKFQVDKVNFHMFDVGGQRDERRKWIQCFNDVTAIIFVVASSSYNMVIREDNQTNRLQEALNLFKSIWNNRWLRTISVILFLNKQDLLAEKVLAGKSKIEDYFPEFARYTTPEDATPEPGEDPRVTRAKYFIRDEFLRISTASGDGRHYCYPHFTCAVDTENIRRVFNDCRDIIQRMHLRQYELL
UniProt P35408: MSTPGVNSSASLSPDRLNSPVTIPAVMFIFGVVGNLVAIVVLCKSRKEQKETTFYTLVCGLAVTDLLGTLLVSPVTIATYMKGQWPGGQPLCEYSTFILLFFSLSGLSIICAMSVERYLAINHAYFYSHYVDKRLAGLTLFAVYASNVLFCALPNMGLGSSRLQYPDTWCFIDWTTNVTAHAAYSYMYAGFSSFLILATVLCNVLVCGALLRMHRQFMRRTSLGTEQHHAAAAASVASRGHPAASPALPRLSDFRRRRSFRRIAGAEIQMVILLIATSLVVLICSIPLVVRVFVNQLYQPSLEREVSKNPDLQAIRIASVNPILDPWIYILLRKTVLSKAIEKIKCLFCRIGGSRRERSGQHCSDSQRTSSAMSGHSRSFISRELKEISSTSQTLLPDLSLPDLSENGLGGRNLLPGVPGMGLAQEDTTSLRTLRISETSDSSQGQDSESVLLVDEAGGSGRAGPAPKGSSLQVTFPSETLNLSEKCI

Target: Gα-s (human (endogenous in LoVo)) (UniProt P63092)
Experiment: co-IP; LoVo cells treated with PGE2 (5 or 10 μM, 6 h); lysate (1% Triton X-100, 50 mM HEPES, 150 mM NaCl) precipitated with Gα-s antibody and Protein G PLUS Agarose at 4 °C; immunoblot for Gα-s, EP2 and EP4

With “EP4 (from UniProt P35408 1-488) (receptor)” the binding was “binds”.
